Assay results from paper doi:10.1101/277269.
These are yes or no findings as the source states them, for the method shown. Binding seen in cells or lysates may run through a third protein. Some entries that bind do so weakly or less than the wild type. Sequences can lack the tags named with a protein.

Molecular target: T1, Cluc-AtRAR1 (Arabidopsis thaliana) (UniProt Q9SE33)
T1 sequence: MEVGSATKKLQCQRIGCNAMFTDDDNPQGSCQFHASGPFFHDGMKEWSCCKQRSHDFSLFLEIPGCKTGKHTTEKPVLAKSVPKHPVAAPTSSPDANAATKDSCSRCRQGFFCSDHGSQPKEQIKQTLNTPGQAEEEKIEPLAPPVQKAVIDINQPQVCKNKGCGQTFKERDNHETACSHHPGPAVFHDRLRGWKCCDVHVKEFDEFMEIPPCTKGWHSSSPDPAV
Test: split reporter

binding: binds
B1: AtSGT1b-Nluc (protein, UniProt Q9SUT5 1-358)
chain: MAKELAEKAKEAFLDDDFDVAVDLYSKAIDLDPNCAAFFADRAQANIKIDNFTEAVVDANKAIELEPTLAKAYLRKGTACMKLEEYSTAKAALEKGASVAPNEPKFKKMIDECDLRIAEEEKDLVQPMPPSLPSSSTTPLATEADAPPVPIPAAPAKPMFRHEFYQKPEEAVVTIFAKKVPKENVTVEFGEQILSVVIDVAGEEAYHLQPRLFGKIIPEKCRFEVLSTKVEIRLAKAEIITWASLEYGKGQSVLPKPNVSSALSQRPVYPSSKPAKDWDKLEAEVKKQEKDEKLDGDAAMNKFFSDIYSSADEDMRRAMNKSFAESNGTVLSTNWKEVGTKKVESTPPDGMELKKWEY
